Literature values as cited in patent publication US20110256530A1, “PRODUCTS AND METHODS FOR TISSUE PRESERVATION” (GenVault Corporation, priority 2010, published 2011).
At least one structure is not confirmed: it was looked up by name or label, or the drawing left a doubt.

Settings: charge state, pH 7, literature references (30)-(33)

O=C1O[C@H]([C@@H](O)CO)C(O)=C1O [Ascorbate]
Useful Chemical Properties: Anion at pH 7 (33)
